{
  "source": "the supplement of paper PMC5393889",
  "note": "The other results are listed elsewhere or left out.",
  "data": [
    {"tested_on": "Caenorhabditis elegans N2", "assay": "aldicarb interaction hit call (worm growth perturbed in combination with 10 uM aldicarb in both replicates, no effect as single agent) (binary (1 = interacts)); higher = interacts with aldicarb (growth perturbed)", "settings": "first compound 1.5 µM; aldicarb concentration 10 µM; 6 days; 20 °C", "values": [
      {"smiles": "CC(C)(C)C(=O)N1CCN(c2ccc([N+](=O)[O-])cc2F)CC1", "note": "[wact-91] + CNC(=O)O/N=C/C(C)(C)SC [aldicarb]", "aldicarb interaction hit call": "inactive: 0"},
      {"smiles": "CC(=O)NC(=S)Nc1ccc(Cl)cc1", "note": "[wact-472] + CNC(=O)O/N=C/C(C)(C)SC [aldicarb]", "aldicarb interaction hit call": "inactive: 0"},
      {"smiles": "COc1ccccc1CNC(=O)c1ccccc1I", "note": "[wact-402] + CNC(=O)O/N=C/C(C)(C)SC [aldicarb]", "aldicarb interaction hit call": "inactive: 0"},
      {"smiles": "CCc1ccc(OCCNC(=O)c2ccccc2I)cc1", "note": "[wact-12] + CNC(=O)O/N=C/C(C)(C)SC [aldicarb]", "aldicarb interaction hit call": "inactive: 0"},
      {"smiles": "O=C1OCCC1Sc1nc(-c2ccc(Cl)cc2Cl)cs1", "note": "(configuration not stated) [wact-551] + CNC(=O)O/N=C/C(C)(C)SC [aldicarb]", "aldicarb interaction hit call": "inactive: 0"},
      {"smiles": "Cc1cc(-c2nc3cc(N)ccc3o2)ccc1Br", "note": "[wact-602] + CNC(=O)O/N=C/C(C)(C)SC [aldicarb]", "aldicarb interaction hit call": "inactive: 0"},
      {"smiles": "FC(F)(F)c1cccc(Cc2noc(CN3CCC(c4ccncc4)CC3)n2)c1", "note": "[wact-263] + CNC(=O)O/N=C/C(C)(C)SC [aldicarb]", "aldicarb interaction hit call": "inactive: 0"},
      {"smiles": "CCc1ccc(-c2cn3ccsc3n2)cc1", "note": "[wact-434] + CNC(=O)O/N=C/C(C)(C)SC [aldicarb]", "aldicarb interaction hit call": "inactive: 0"},
      {"smiles": "Ic1cccc(-c2nnc(-c3ccccc3)o2)c1", "note": "[wact-51] + CNC(=O)O/N=C/C(C)(C)SC [aldicarb]", "aldicarb interaction hit call": "inactive: 0"},
      {"smiles": "COc1cccc(-c2noc(-c3ccccc3)n2)c1", "note": "[wact-135] + CNC(=O)O/N=C/C(C)(C)SC [aldicarb]", "aldicarb interaction hit call": "inactive: 0"},
      {"smiles": "O=C(c1ccccc1[N+](=O)[O-])N1CCN(c2ccc(Cl)c(Cl)c2)CC1", "note": "[wact-88] + CNC(=O)O/N=C/C(C)(C)SC [aldicarb]", "aldicarb interaction hit call": "inactive: 0"},
      {"smiles": "C#CCOc1ccc(C(=O)Nc2ccccc2Cl)cc1", "note": "[wact-584] + CNC(=O)O/N=C/C(C)(C)SC [aldicarb]", "aldicarb interaction hit call": "inactive: 0"}
    ]}
  ]
}
